These are yes or no findings as the source states them, for the method shown. In cells and extracts the contact can be indirect. Sequences can lack the tags named with a protein.

The results in this text go back to publication PMC3283642.

The test has as its target T1, MBP-Os01g (Os01g0286100 fused to maltose binding protein) (rice (Oryza sativa L. cv Nipponbare)) (UniProt Q0JNI9).
T1 sequence: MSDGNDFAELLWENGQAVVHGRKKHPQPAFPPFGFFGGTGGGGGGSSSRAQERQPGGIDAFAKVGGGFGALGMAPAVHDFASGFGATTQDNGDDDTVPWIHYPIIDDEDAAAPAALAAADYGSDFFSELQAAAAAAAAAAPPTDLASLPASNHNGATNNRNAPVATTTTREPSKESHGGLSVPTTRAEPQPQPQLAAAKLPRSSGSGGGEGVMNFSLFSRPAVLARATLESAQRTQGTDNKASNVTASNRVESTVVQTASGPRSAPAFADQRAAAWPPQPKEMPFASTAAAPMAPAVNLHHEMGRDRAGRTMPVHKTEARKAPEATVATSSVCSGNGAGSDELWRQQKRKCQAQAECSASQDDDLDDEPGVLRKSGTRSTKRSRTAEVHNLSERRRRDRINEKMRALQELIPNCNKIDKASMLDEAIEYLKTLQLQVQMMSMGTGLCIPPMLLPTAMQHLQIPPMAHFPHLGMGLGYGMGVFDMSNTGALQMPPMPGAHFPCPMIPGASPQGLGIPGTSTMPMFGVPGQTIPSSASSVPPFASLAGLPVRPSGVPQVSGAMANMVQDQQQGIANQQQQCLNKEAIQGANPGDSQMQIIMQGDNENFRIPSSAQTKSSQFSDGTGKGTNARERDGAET
The experiment in a line: pull-down; amylose resin-bound MBP fusion incubated with an equal amount of GST fusion; binding buffer 20 mM Tris-HCl pH 7.5, 100 mM NaCl, 1 mM EDTA, 1 mM DTT, 0.2% 2-mercaptoethanol, protease inhibitor; 4°C, 2 hours; five washes with 300 mM NaCl, 0.05% Tween-20; immunoblot with anti-GST. In general terms: In western blotting, separated proteins are transferred to a membrane and probed.

B1: GST-PGL1 (POSITIVE REGULATOR OF GRAIN LENGTH 1 fused to glutathione S-transferase) (protein, UniProt Q0DUR2 1-92)
chain: MSSRRSRSRQSGSSRITDEQISDLVSKLQDLLPEARLRSNDRVPSSRVLQETCNYIRSLHQEVDDLSERLSELLATSDMSSAQAAIIRSLLM
With B1, the binding entry is “no binding”.
